Experimental findings from paper PMC7373794 are described below.

These are yes or no findings as the source states them, for the method shown. Binding can be weak; no strength is given. Where a sequence is shown, tags or fusion partners need not be part of it.

This assay deals with soluble C-terminal extension of ALA10 fused to the GAL4 binding domain (Arabidopsis thaliana). Briefly: two-hybrid; GAL4 1-by-1 Y2H interaction assay (Hybrigenics Service); serial dilutions plated without tryptophane and leucine, without tryptophane, leucine and histidine, and the latter with 1 mM 3-aminotriazole.

B1: full length PUB11 fused to the activation domain (protein, UniProt Q8GUG9 1-612)
chain: MAGGIVSPASLLDLIADIVEIPLNTGMFKKDCADLTRRVCLLTHLLEEIRDSTPIDSAASSSSENDWWSDLVVGLQAAKRLLSTARFQARDSSDGAAKRISFQFQCVTWKLEKALSNLPYDLYDISDEVGEQVELARSQLRRAMQRYGSLNSNKFSSALSEPMERDGFSNVIKIKAEEKLESVSETLHFGEEEEKQSSPPLRRSSSISLAYYLSKDADTDRLDKMVNKNTDESKKSDKLTIPVDFLCPVSLELMKDPVIVATGQTYERAYIQRWIDCGNLTCPKTQQKLENFTLTPNYVLRSLISRWCAEHNIEQPAGYINGRTKNSGDMSVIRALVQRLSSRSTEDRRNAVSEIRSLSKRSTDNRILIAEAGAIPVLVNLLTSEDVATQENAITCVLNLSIYENNKELIMFAGAVTSIVQVLRAGTMEARENAAATLFSLSLADENKIIIGGSGAIPALVDLLENGTPRGKKDAATALFNLCIYHGNKGRAVRAGIVTALVKMLSDSTRHRMVDEALTILSVLANNQDAKSAIVKANTLPALIGILQTDQTRNRENAAAILLSLCKRDTEKLITIGRLGAVVPLMDLSKNGTERGKRKAISLLELLRKACQ
Take B1: the binding entry was “binds”.
